{"source": "patent US20190374158A1", "about": "“SYSTEM AND METHOD FOR MONITORING AND CONTROLLING A STATE OF A PATIENT DURING AND AFTER ADMINISTRATION OF […]” (The General Hospital Corporation, priority 2012, published 2019)", "system": "burst suppression", "experiment": "physostigmine effect on stable burst suppression, rat EEG", "type": "in vivo, Sprague-Dawley rat", "settings": "point-to-point comparison matrix, probability 0.95", "source_text": "The following description is with respect to an analysis of a rat under general anesthesia-induced burst suppression The BSP is compared to the BSR in order to illustrate its benefits. For the experiments described herein, signals were first band pass filtered between 5 and 30 Hz. The filtered signals were thresholded and suppression segments less than 500 milliseconds in duration were switched to 1. The binary series was then provided as an input to the BSP algorithm.\nThe BSP algorithm was evaluated on a rat EEG signal recorded to test whether physostigmine, a cholinergic agonist hypothesized to increase arousal, causes the burst suppression pattern observed during deep anesthesia to switch into continuous activity (associated with increased arousal). In this experiment, it is advantageous to know whether physostigmine, and not saline (control), induces a shift from burst suppression (deep anesthesia) to a delta wave pattern (lighter anesthesia). In case it does, it is desirable characterize the temporal dynamics of that change.\nA rat pre-implanted with extradural EEG electrodes was deeply anesthetized with 2% isoflurane. After stabilization of the inhaled concentration, the EEG signal, was recorded for 10 minutes prior to a saline intravenous injection (control). Six minutes later, physostigmine was injected and the recording was maintained for an additional thirty minutes. […]", "note": "For at least one compound, name, drawing or mass did not settle the structure."}
{"compound": "CNC(=O)Oc1ccc2c(c1)[C@]1(C)CCN(C)[C@@H]1N2C", "note": "[physostigmine]", "values": [{"measurement": "BSP from injection at minute 16 until about minute 26 versus BSP at all other time points", "result": "significantly smaller"}]}
